Results published in US10646572B2, “Pharmaceutical compositions with enhanced stability” (Foresee Pharmaceuticals Co., Ltd., priority 2006, dated 2020).
Structures can show the parent of a compound that is named as a salt. Part of at least one peptide drawing is inferred or uncertain, most often the ends. Some entries share one result that the patent states for a list of compounds.

What was measured:
[1] = In vitro release of leuprolide from injectable polymeric formulations (Example 10); type: physicochemical; conditions: 6% by weight in PLGA/NMP, PBS pH 7.4, 37° C., FIG. 3
Method: Three polymer vehicle solutions were prepared as following: PLG 85/15 (0.28 IV) with a lauryl ester end group was dissolved in NMP at 50% and 55% by weight, and RG503 (0.42 IV) with a carboxylic acid end group was dissolved in NMP at 50% by weight. Then suitable amount of leuprolide hydrochloride (LAHCl) and leuprolide mesylate (LAMS) were mixed with the polymer solutions at 6% by weight each. The formulations were thoroughly mixed to obtain uniform formulations.
An aliquot of the formulation suspension (about 100 mg) was injected into in 3 mL phosphate buffer saline solution at pH 7.4 with 0.1% sodium azide at 37° C. The receiving fluid was replaced at selected time points with fresh buffer solution, and the removed buffer solution diluted 2-fold with phosphate buffer at pH 7.4 was analyzed for drug concentration by HPLC. The amount released at each time point was calculated.

[2] = NMP

| leuprolide release, LAHCl versus LAMS [1] | molecular weight of PLGA versus blank control ([2]; both 4° C. and RT, after 12 months) | decrease of molecular weight of PLGA comparing to blank control ([2]; room temperature, after 6 months) | Structure (SMILES) |
| --- | --- | --- | --- |
| no significant difference | the same as that of the blank control | – | CCNC(=O)[C@@H]1CCCN1C(=O)[C@H](CCCNC(=N)N)NC(=O)[C@H](CC(C)C)NC(=O)[C@@H](CC(C)C)NC(=O)[C@H](Cc1ccc(O)cc1)NC(=O)[C@H](CO)NC(=O)[C@H](Cc1c[nH]c2ccccc12)NC(=O)[C@H](Cc1c[nH]cn1)NC(=O)[C@@H]1CCC(=O)N1 [leuprolide mesylate, Leuprolide Mesylate] |
| – | – | more than 90% | CCNC(=O)[C@@H]1CCCN1C(=O)[C@H](CCCNC(=N)N)NC(=O)[C@H](CC(C)C)NC(=O)[C@@H](CC(C)C)NC(=O)[C@H](Cc1ccc(O)cc1)NC(=O)[C@H](CO)NC(=O)[C@H](Cc1c[nH]c2ccccc12)NC(=O)[C@H](Cc1c[nH]cn1)NC(=O)[C@@H]1CCC(=O)N1 [leuprolide acetate, Leuprolide acetate, reference compound] |
